From patent US9468602B2, “Pharmaceutical microemulsion for preventing supramolecular aggregation of amphiphilic molecules” (AZAD Pharma AG, priority 2009, dated 2016)
For at least one compound, name, drawing or mass did not settle the structure.

Test: Dynamic Laser Light Scattering (DLLS) analysis of supramolecular aggregation
Type: physicochemical
Procedure: Dynamic Laser Light Scattering (DLLS) was carried out on a Zetasizer Nano S from Malvern Instruments. DLLS is used for measuring the size of the microemulsion oil droplets or size of the supramolecular aggregates (% distribution function modality). Further characterization of supramolecular aggregation is given by the correlation coefficient function modality analysis of the Dynamic Laser Light Scattering.
In order to monitor the level of molecular aggregation in solution, Dynamic Laser Light Scattering (DLLS) has been used. Using this technique, it is not necessary to dilute the sample.

SMILES: CN(C)[C@@H]1C(O)=C(C(N)=O)C(=O)[C@@]2(O)C(O)=C3C(=O)c4c(O)cccc4[C@@](C)(O)[C@H]3C[C@@H]12 [tetracycline]
- Aggregation by DLLS (20 μg/ml in water plus glycerol 30 mg/ml): eliminates the larger aggregates
- Aggregation by DLLS (20 μg/ml in water plus glycerol 90 mg/ml): no aggregates are observed
